Measured values from article PMC9763423.
Results are given in words; binding and its absence hold for the method and conditions named. Binding seen in cells or lysates may run through a third protein. Some results given as binding are weak or reduced against the parent protein; the word gives no strength.

By UniProt entry, the sequences of proteins in these tests, tags left out.
UniProt Q07820: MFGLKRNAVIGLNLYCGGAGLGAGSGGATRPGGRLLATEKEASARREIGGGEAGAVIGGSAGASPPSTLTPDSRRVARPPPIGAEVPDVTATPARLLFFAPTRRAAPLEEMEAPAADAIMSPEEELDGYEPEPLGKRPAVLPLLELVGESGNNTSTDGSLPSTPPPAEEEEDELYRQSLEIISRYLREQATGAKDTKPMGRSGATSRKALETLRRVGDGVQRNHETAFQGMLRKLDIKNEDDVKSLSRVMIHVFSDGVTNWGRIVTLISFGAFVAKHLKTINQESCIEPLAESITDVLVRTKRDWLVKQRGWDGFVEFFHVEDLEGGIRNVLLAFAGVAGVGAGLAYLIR
UniProt Q93008: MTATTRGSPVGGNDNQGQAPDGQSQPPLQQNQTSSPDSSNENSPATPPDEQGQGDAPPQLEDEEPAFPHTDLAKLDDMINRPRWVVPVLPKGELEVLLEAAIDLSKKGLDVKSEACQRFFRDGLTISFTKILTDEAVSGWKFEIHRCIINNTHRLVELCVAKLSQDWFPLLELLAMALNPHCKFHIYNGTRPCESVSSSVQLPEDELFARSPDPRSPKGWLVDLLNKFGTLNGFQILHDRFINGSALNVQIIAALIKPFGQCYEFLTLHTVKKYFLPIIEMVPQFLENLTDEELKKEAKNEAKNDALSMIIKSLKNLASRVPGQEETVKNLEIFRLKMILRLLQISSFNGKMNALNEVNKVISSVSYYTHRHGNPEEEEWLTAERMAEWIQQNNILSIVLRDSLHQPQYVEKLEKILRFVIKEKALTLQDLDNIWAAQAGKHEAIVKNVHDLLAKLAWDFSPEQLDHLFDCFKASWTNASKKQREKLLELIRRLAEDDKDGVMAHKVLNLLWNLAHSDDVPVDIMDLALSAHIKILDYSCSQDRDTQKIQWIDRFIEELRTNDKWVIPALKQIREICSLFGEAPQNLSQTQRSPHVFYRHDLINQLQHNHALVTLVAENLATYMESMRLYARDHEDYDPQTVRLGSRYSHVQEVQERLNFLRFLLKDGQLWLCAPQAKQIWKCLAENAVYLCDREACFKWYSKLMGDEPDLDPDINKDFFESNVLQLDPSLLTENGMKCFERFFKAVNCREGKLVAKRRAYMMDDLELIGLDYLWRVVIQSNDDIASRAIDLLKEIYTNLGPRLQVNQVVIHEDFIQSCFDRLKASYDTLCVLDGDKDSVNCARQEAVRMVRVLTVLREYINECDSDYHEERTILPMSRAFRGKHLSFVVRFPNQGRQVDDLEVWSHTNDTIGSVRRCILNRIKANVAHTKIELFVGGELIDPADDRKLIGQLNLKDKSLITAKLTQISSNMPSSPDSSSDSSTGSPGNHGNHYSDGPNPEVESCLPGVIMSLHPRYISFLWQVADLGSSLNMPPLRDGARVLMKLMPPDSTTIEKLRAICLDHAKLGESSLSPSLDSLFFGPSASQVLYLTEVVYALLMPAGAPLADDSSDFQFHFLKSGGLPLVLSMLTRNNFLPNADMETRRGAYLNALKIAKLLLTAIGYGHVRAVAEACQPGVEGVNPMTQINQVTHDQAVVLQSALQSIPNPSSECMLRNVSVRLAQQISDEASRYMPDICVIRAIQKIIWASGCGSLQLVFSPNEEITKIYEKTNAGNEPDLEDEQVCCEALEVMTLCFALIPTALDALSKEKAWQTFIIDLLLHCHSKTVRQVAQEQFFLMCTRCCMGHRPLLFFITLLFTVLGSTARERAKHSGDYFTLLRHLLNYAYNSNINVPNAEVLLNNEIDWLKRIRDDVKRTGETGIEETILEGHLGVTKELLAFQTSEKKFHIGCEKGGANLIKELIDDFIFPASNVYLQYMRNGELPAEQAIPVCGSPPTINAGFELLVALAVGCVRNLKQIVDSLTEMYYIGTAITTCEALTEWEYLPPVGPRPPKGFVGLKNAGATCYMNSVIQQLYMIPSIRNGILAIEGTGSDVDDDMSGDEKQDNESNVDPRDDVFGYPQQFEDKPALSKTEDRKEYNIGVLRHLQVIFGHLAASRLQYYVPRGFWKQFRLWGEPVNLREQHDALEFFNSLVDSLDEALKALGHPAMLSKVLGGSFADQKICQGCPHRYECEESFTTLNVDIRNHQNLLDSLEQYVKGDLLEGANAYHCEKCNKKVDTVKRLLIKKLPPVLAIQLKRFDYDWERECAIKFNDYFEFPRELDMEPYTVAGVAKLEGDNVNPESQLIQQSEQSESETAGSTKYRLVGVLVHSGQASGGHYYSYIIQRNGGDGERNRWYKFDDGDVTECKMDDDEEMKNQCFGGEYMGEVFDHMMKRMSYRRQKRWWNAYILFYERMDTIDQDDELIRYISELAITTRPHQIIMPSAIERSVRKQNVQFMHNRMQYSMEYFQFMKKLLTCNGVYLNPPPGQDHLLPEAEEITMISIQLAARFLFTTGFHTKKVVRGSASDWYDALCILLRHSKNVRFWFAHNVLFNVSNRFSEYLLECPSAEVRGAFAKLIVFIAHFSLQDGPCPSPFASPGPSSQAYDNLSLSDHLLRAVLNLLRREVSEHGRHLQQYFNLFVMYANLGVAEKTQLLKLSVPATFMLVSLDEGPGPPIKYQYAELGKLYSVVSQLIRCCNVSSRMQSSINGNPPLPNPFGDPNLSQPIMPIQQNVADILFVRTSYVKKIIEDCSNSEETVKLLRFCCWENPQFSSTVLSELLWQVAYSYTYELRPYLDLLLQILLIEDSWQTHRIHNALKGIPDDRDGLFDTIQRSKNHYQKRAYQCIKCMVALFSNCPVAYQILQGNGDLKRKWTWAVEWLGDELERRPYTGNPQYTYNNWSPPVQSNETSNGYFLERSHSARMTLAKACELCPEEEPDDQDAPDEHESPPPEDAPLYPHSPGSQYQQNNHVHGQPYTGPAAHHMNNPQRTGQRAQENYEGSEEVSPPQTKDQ
UniProt P12956: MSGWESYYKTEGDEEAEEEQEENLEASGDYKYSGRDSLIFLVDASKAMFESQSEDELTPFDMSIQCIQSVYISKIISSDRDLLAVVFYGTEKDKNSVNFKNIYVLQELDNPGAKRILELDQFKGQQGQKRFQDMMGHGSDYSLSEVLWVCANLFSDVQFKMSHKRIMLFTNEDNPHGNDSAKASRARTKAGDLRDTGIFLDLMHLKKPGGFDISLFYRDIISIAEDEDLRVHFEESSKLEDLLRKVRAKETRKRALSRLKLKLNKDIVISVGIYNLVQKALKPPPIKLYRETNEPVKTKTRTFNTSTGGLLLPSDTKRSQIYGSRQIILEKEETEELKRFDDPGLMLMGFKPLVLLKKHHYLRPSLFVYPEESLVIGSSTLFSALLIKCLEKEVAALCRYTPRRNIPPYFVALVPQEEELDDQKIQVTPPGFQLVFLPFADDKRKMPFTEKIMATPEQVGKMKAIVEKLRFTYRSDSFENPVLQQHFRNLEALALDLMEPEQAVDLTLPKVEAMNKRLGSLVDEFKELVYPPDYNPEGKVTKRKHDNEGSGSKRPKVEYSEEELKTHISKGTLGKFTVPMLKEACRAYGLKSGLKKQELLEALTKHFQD

Target: myeloid cell leukemia-1 (MCL-1) (human (endogenous in CAL27R)) (UniProt Q07820)
Experiment: co-IP; endogenous MCL-1 and deubiquitinases, CAL27R sgCtrl and TRAF4 knockout cells treated with/without IR (2 Gy) for 20 min; primary antibody and Protein A/G agarose beads, immunoblot

Substance | binding
USP9X (from UniProt Q93008 1-2554) (enzyme) | binds
Ku70 (from UniProt P12956 1-609) | binds
